The text below walks through data of publication PMC7484759.

By UniProt entry, the sequences of proteins in these tests, tags left out.
UniProt Q9UNE7: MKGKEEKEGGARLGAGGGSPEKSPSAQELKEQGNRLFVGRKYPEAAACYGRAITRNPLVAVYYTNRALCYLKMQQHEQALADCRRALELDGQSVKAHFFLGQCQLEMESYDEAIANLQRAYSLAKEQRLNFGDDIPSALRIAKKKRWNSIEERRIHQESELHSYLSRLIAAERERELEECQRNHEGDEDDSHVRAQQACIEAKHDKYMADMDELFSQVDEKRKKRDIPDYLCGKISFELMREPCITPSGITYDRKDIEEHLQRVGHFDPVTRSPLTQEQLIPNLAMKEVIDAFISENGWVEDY

No constants are given. Whether binding was seen depends on the method and setting. In cells and extracts the contact can be indirect. Some entries that bind do so weakly or less than the wild type.

The assay deals with T1, NOXA (endogenous) (human (endogenous in HeLa)) (UniProt Q13794).
T1 sequence: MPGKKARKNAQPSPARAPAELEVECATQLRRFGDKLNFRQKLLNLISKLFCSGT
The experiment in a line: co-IP; endogenous NOXA precipitated with NOXA antibody (clone N-15) and Protein G beads from HeLa cells treated with DOX as indicated; cells cross-linked with 2.5 mM DSS before lysis; western blot.

As to “CHIP (carboxyl-terminus of Hsc70-interacting protein) (from UniProt Q9UNE7 1-303) (enzyme)”, the binding entry is “binds”.

B1: A1 (protein, UniProt Q16548 1-175)
chain: MTDCEFGYIYRLAQDYLQCVLQIPQPGSGPSKTSRVLQNVAFSVQKEVEKNLKSCLDNVNVVSVDTARTLFNQVMEKEFEDGIINWGRIVTIFAFEGILIKKLLRQQIAPDVDTYKEISYFVAEFIMNNTGEWIRQNGGWENGFVKKFEPKSGWMTFLEVTGKICEMLSLLKQYC
Turning to B1, the binding entry was “binds”.
